± gives the standard deviation of the averaged measurements. Most values lie at the floor of the assay. Slopes are relative: functional sequences can read slightly below zero.
System: Saccharomyces cerevisiae PS128 hsf1 delta, HSF1(1-493) fusion
Experiment: growth estimate (transactivation domain function in HSF1 fusion, heat-shock survival) (a.u. (slope of normalised read count over time)); higher = stronger growth at 37°C, i.e. more transactivation activity
Conditions: library: random library

**Q.** SYVRHTQPGQTCC was tested. Which growth estimate did it give?
**A.** < -0.25

**Q.** For SYVYWVRSFEFQ, which growth estimate is on record?
**A.** < -0.25

**Q.** With SYYGPWSIPGTPQEPPRPQS as the substance, how does the growth estimate read?
**A.** < -0.25

**Q.** With SYYIQIFN as the substance, how does the growth estimate read?
**A.** < -0.25

**Q.** For TAAKSRQGEIRKCDRLAILT, which growth estimate is on record?
**A.** < -0.25

**Q.** With TAAWY as the substance, how does the growth estimate read?
**A.** < -0.25

**Q.** With TACA as the substance, how does the growth estimate read?
**A.** < -0.25

**Q.** For TACIAPGRGRPDLRLDSVRD, which growth estimate is on record?
**A.** < -0.25

**Q.** For TACVGL, which growth estimate is on record?
**A.** < -0.25

**Q.** How did the growth estimate turn out when TADGLQHKTLQKQILG was run?
**A.** < -0.25

**Q.** For TADIEKISRLAADEYCNLIE, which growth estimate is on record?
**A.** -0.246

**Q.** For TADSDTLVKLLSPLTFAEDT, which growth estimate is on record?
**A.** -0.214

**Q.** How did the growth estimate turn out when TAGAGSGRRGTILQAGDSHG was run?
**A.** < -0.25

**Q.** Which growth estimate does the source give for TAGESVASGYGLTLLFGDAP here?
**A.** < -0.25

**Q.** Which growth estimate does the source give for TAGRCIGMVPASCCGVGSPG here?
**A.** < -0.25

**Q.** How did the growth estimate turn out when TAGRPRT was run?
**A.** < -0.25

**Q.** TAGSAVLWHSYRVW was tested. Which growth estimate did it give?
**A.** < -0.25

**Q.** For TAGSFYERLSRL, which growth estimate is on record?
**A.** < -0.25

**Q.** How did the growth estimate turn out when TAHFPSCLGWQRLERGTRIA was run?
**A.** < -0.25

**Q.** TAIGGHIDQSVNNSAGSGA was tested. Which growth estimate did it give?
**A.** < -0.25

**Q.** How did the growth estimate turn out when TAIRASEVLTRFVGIFRLFD was run?
**A.** < -0.25

**Q.** Which growth estimate does the source give for TAIVLSKAVLPCESKSCLYH here?
**A.** < -0.25

**Q.** Which growth estimate does the source give for TALT here?
**A.** < -0.25

**Q.** Which growth estimate does the source give for TAPGPARWRVASV here?
**A.** < -0.25

**Q.** For TAQ, which growth estimate is on record?
**A.** -0.245 ± 0.0065

**Q.** How did the growth estimate turn out when TARL was run?
**A.** < -0.25

**Q.** TASCLTINSVGEKAGYRGPV was tested. Which growth estimate did it give?
**A.** < -0.25

**Q.** TASIRSLG was tested. Which growth estimate did it give?
**A.** < -0.25

**Q.** For TASKIRIVFSGLR, which growth estimate is on record?
**A.** -0.245

**Q.** With TASRCGECWLARVLTGT as the substance, how does the growth estimate read?
**A.** < -0.25

**Q.** Which growth estimate does the source give for TASVLLDASIALVENRIFSY here?
**A.** < -0.25

**Q.** How did the growth estimate turn out when TATAHPNCETV was run?
**A.** < -0.25

**Q.** Which growth estimate does the source give for TAYLSPEPDTKVASLRQWNR here?
**A.** < -0.25

**Q.** For TAYYACSLCGRGIGVVRVGI, which growth estimate is on record?
**A.** < -0.25

**Q.** How did the growth estimate turn out when TCAGTGIWLGRSNTSIDFCA was run?
**A.** < -0.25

**Q.** How did the growth estimate turn out when TCARSIR was run?
**A.** < -0.25

**Q.** Which growth estimate does the source give for TCDAVEIKAHCQIGLRRSTR here?
**A.** 0.0112

**Q.** With TCET as the substance, how does the growth estimate read?
**A.** < -0.25

**Q.** TCFGFRDAPVSSDDGSVDIN was tested. Which growth estimate did it give?
**A.** -0.216

**Q.** Which growth estimate does the source give for TCGGSFPLGKHEN here?
**A.** < -0.25

**Q.** TCGNGISPSKLKYPGRRVAR was tested. Which growth estimate did it give?
**A.** < -0.25

**Q.** TCGQFPQDSLVSDLAA was tested. Which growth estimate did it give?
**A.** < -0.25

**Q.** For TCIEIGHKNGQSMRKIALVS, which growth estimate is on record?
**A.** -0.246

**Q.** TCITCYQPRKLVKHY was tested. Which growth estimate did it give?
**A.** < -0.25

**Q.** Which growth estimate does the source give for TCITGPVGGSQRHRLNG here?
**A.** < -0.25

**Q.** How did the growth estimate turn out when TCLGRPPMTYVLATGSEWNR was run?
**A.** < -0.25

**Q.** Which growth estimate does the source give for TCLKIWVVGILLETSR here?
**A.** < -0.25

**Q.** How did the growth estimate turn out when TCLKYAMQIKPQSVKCRPAT was run?
**A.** < -0.25

**Q.** How did the growth estimate turn out when TCLVFLYIRERVSRVR was run?
**A.** < -0.25

**Q.** TCMNVIFASRY was tested. Which growth estimate did it give?
**A.** < -0.25

**Q.** Which growth estimate does the source give for TCRALKGFRRALDRAPLPLA here?
**A.** < -0.25

**Q.** For TCRDSA, which growth estimate is on record?
**A.** < -0.25

**Q.** Which growth estimate does the source give for TCRQGTD here?
**A.** < -0.25

**Q.** TCSAQPLGPPNQARVYTVSR was tested. Which growth estimate did it give?
**A.** < -0.25

**Q.** For TCVGHIRRTRA, which growth estimate is on record?
**A.** < -0.25

**Q.** For TCVNRASVFSQRLCHPRSNH, which growth estimate is on record?
**A.** < -0.25

**Q.** For TCVSKRMMVSVRLGWTTGF, which growth estimate is on record?
**A.** < -0.25

**Q.** Which growth estimate does the source give for TDASVHARKWDKAVPAQGGA here?
**A.** < -0.25

**Q.** How did the growth estimate turn out when TDC was run?
**A.** < -0.25

**Q.** For TDCRLSSIWQGAEASRIPQL, which growth estimate is on record?
**A.** < -0.25

**Q.** How did the growth estimate turn out when TDEQLWFLQLSCRLVIG was run?
**A.** < -0.25

**Q.** How did the growth estimate turn out when TDGSPSGFANTVGVEGLVFS was run?
**A.** < -0.25

**Q.** TDGYIQ was tested. Which growth estimate did it give?
**A.** < -0.25

**Q.** With TDHLRALATLNECFMR as the substance, how does the growth estimate read?
**A.** < -0.25

**Q.** Which growth estimate does the source give for TDIPDSYTPDTSKTLTHHQR here?
**A.** < -0.25

**Q.** For TDIPMCGNRGPT, which growth estimate is on record?
**A.** < -0.25

**Q.** TDKSQGRQTCSSLSVRRSLA was tested. Which growth estimate did it give?
**A.** < -0.25

**Q.** Which growth estimate does the source give for TDLLRRNLVQSKVRGHG here?
**A.** < -0.25

**Q.** With TDLLTSVHCDLGVV as the substance, how does the growth estimate read?
**A.** < -0.25

**Q.** How did the growth estimate turn out when TDN was run?
**A.** < -0.25

**Q.** How did the growth estimate turn out when TDNCIHQFEYHSLSCCHWAG was run?
**A.** < -0.25

**Q.** How did the growth estimate turn out when TDPWIQELRFFR was run?
**A.** -0.201

**Q.** How did the growth estimate turn out when TDRCCLSRVAEFCRMVASIR was run?
**A.** < -0.25

**Q.** With TDS as the substance, how does the growth estimate read?
**A.** < -0.25

**Q.** How did the growth estimate turn out when TDSEMGSVEDLLVFFGEGGL was run?
**A.** 3.11

**Q.** Which growth estimate does the source give for TDSKPRASENGDFVEGLNSQ here?
**A.** < -0.25

**Q.** With TDSLP as the substance, how does the growth estimate read?
**A.** < -0.25

**Q.** Which growth estimate does the source give for TDVRRYLRRRGQLGGGVRHH here?
**A.** < -0.25

**Q.** For TDWSQLSVAVLRAHYTLFAN, which growth estimate is on record?
**A.** < -0.25
